We go through eleven molecules from PMC8877285.

The assay concerns the target T1, flavin-containing monooxygenase 3 (FMO3) (mouse (endogenous in mouse liver)) (UniProt P97501).
T1 sequence: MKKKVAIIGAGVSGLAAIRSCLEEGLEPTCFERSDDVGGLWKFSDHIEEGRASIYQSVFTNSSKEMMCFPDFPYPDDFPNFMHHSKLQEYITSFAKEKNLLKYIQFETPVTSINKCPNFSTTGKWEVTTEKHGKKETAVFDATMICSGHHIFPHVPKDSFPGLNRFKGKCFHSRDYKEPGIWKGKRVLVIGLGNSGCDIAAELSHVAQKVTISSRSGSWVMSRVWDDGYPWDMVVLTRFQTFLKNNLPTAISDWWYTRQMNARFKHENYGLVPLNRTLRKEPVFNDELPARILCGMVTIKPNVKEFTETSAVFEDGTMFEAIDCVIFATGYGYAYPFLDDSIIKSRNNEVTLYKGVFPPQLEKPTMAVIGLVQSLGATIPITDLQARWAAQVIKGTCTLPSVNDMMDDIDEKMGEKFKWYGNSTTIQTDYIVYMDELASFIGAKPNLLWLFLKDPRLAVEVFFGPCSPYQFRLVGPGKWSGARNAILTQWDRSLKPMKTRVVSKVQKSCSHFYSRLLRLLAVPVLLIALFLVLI
The assay can be described thus: affinity purification with mass spectrometry; mouse liver extracts (vehicle or PCB-126-treated mice) in TBS (25 mM Tris pH 7.4, 150 mM NaCl, 1% NP-40, 5% glycerol, protease inhibitors), immunoprecipitated overnight at 4 °C with anti-FMO3 (Abnova) on protein A/G agarose; normal IgG IP as control; LC-MS/MS of the tryptic digest.

Results are given in words; binding and its absence hold for the method and conditions named. Binding seen in cells or lysates may run through a third protein. These calls come from enrichment with a bait or labelling near it, and not all partners need be listed.

B1: dihydrolipoamide S-succinyltransferase (Dlst) (protein, UniProt Q9D2G2 69-454)
chain: NDVITVQTPAFAESVTEGDVRWEKAVGDAVAEDEVVCEIETDKTSVQVPSPANGIIEALLVPDGGKVEGGTPLFTLRKTGAAPAKAKPAETPAPAHKAEPAAPAAPPPPAAPVLTQMPPVPSPSQPPSSKPVSAIKPTAAPPLAEAGAAKGLRSEHREKMNRMRQRIAQRLKEAQNTCAMLTTFNEVDMSNIQEMRARHKDAFLKKHNLKLGFMSAFVKASAFALQEQPVVNAVIDDATKEVVYRDYIDISVAVATPRGLVVPVIRNVETMNYADIERTINELGEKARKNELAIEDMDGGTFTISNGGVFGSLFGTPIINPPQSAILGMHAIFDRPVAVGGKVEVRPMMYVALTYDHRLIDGREAVTFLRKIKAAVEDPRVLLLDL
Consider B1, for which the binding entry is listed as “binds”.

B2: SDS (protein, UniProt Q8VBT2 1-327)
chain: MAAQESLHVKTPLRDSMALSKLAGTSVFLKMDSSQPSGSFKIRGIGHLCKMKAKQGCRHFVCSSAGNAGMATAYAARRLGIPATIVVPNTTPALTIERLKNEGATVEVVGEMLDEAIQVAKALEKNNPGWVYISPFDDPLIWEGHTSLVKELKETLSAKPGAIVLSVGGGGLLCGVVQGLREVGWEDVPIIAMETFGAHSFHAAIKEGKLVTLPKITSVAKALGVNTVGAQTLKLFYEHPIFSEVISDQEAVSALEKFVDDEKILVEPACGAALAAVYSRVVCRLQDEGRLQTPLASLVVIVCGGSNISLAQLQALKVQLGLNGLPE
For B2, the binding result is listed as “binds”.

B3: CYP1A2 (protein, UniProt P00186 1-513)
chain: MAFSQYISLAPELLLATAIFCLVFWMVRASRTQVPKGLKNPPGPWGLPFIGHMLTVGKNPHLSLTRLSQQYGDVLQIRIGSTPVVVLSGLNTIKQALVRQGDDFKGRPDLYSFTLITNGKSMTFNPDSGPVWAARRRLAQDALKSFSIASDPTSASSCYLEEHVSKEANHLVSKLQKAMAEVGHFEPVSQVVESVANVIGAMCFGKNFPRKSEEMLNIVNNSKDFVENVTSGNAVDFFPVLRYLPNPALKRFKTFNDNFVLFLQKTVQEHYQDFNKNSIQDITSALFKHSENYKDNGGLIPEEKIVNIVNDIFGAGFDTVTTAITWSILLLVTWPNVQRKIHEELDTVVGRDRQPRLSDRPQLPYLEAFILEIYRYTSFVPFTIPHSTTRDTSLNGFHIPKERCIYINQWQVNHDEKQWKDPFVFRPERFLTNNNSAIDKTQSEKVMLFGLGKRRCIGEIPAKWEVFLFLAILLQHLEFSVPPGVKVDLTPNYGLTMKPGTCEHVQAWPRFSK
B3: the binding entry is “binds”.

B4: KRT10 (protein, UniProt P02535 1-570)
chain: MSVLYSSSSKQFSSSRSGGGGGGGSVRVSSTRGSLGGGYSSGGFSGGSFSRGSSGGGCFGGSSGGYGGFGGGGSFGGGYGGSSFGGGYGGSSFGGGYGGSSFGGAGFGGGGSFGGGSFGGGSYGGGFGGGGFGGDGGSLLSGNGRVTMQNLNDRLASYMDKVRALEESNYELEGKIKEWYEKHGNSSQREPRDYSKYYKTIEDLKGQILTLTTDNANVLLQIDNARLAADDFRLKYENEVTLRQSVEADINGLRRVLDELTLSKSDLEMQIESLNEELAYLKKNHEEEMRDLQNVSTGDVNVEMNAAPGVDLTQLLNNMRNQYEQLAEKNRKDAEEWFNQKSKELTTEIDSNIEQMSSHKSEITELRRTVQGLEIELQSQLALKQSLEASLAETEGRYCVQLSQIQSQISALEEQLQQIRAETECQNAEYQQLLDIKTRLENEIQTYRSLLEGEGSSSGGGGGRRGGSGGGSYGGSSGGGSYGGSSGGGGSYGGSSGGGGSYGGGSSGGGSHGGSSGGGYGGGSSSGGAGGHGGSSGGGYGGGSSSGGQGGSGGFKSSGGGDQSSKGPRY
Consider B4, for which the binding result was “binds”.

B5: SUCLG2 (protein, UniProt Q9Z2I8 39-433)
chain: LNLQEYQSKKLMSEHGVRVQRFFVANTAKEALEAAKRLNAKEIVLKAQILAGGRGKGVFNSGLKGGVHLTKDPKVVGELAQQMIGYNLATKQTPKEGVKVNKVMVAEALDISRETYLAILMDRSHNGPVIVGSPQGGVDIEEVAASSPELIFKEQIDIFEGIKDSQAQRMAENLGFLGSLKNQAADQITKLYHLFLKIDATQVEVNPFGETPEGQVVCFDAKINFDDNAEFRQKDIFAMDDKSENEPIENEAARYDLKYIGLDGNIACFVNGAGLAMATCDIIFLNGGKPANFLDLGGGVKEAQVYEAFKLLTSDPKVEAILVNIFGGIVNCAIIANGITKACRELELKVPLVVRLEGTNVQEAQNILKSSGLPITSAVDLEDAAKKAVASVAKK
Turning to B5, the binding result is listed as “binds”.

B6: PRDX1 (protein, UniProt P35700 1-199)
chain: MSSGNAKIGYPAPNFKATAVMPDGQFKDISLSEYKGKYVVFFFYPLDFTFVCPTEIIAFSDRADEFKKLNCQVIGASVDSHFCHLAWINTPKKQGGLGPMNIPLISDPKRTIAQDYGVLKADEGISFRGLFIIDDKGILRQITINDLPVGRSVDEIIRLVQAFQFTDKHGEVCPAGWKPGSDTIKPDVNKSKEYFSKQK
B6: the binding result was “binds”.

B7: SERBP1 (protein, UniProt Q9CY58 1-407)
chain: MPGHLQEGFGCVVTNRFDQLFDDESDPFEVLKAAENKKKEAGGGGVGGPGAKSAAQAAAQTNSNAAGKQLRKESQKDRKNPLPPSVGVADKKEETQPPVALKKEGIRRVGRRPDQQLQGDGKLIDRRAERRPPRERRFEKPLEEKGEGGEFSVDRPIIERPIRGRGGLGRGRGGRGRGMGRGDGFDSRGKREFDRHSGSDRSSFSHYSGLKHEDKRGGSGSHNWGTVKDELTESPKYIQKQISYNCSDLDQSNVTEETPEGEEHPVADTENKENEVEEVKEEGPKEMTLDEWKAIQNKDRAKVEFNIRKPNEGADGQWKKGFVLHKSKSEEAHAEDSVMDHHFRKPANDITSQLEINFGDLGRPGRGGRGGRGGRGRGGRPNRGSRTDKSSASAPDVDDPEAFPALA
Regarding B7, the binding entry is reported as “binds”.

B8: TRIM21 (protein, UniProt Q62191 1-470)
chain: MSPSTTSKMSLEKMWEEVTCSICLDPMVEPMSIECGHCFCKECIFEVGKNGGSSCPECRQQFLLRNLRPNRHIANMVENLKQIAQNTKKSTQETHCMKHGEKLHLFCEEDGQALCWVCAQSGKHRDHTRVPIEEAAKVYQEKIHVVLEKLRKGKELAEKMEMDLTMQRTDWKRNIDTQKSRIHAEFALQNSLLAQEEQRQLQRLEKDQREYLRLLGKKEAELAEKNQALQELISELERRIRGSELELLQEVRIILERSGSWNLDTLDIDAPDLTSTCPVPGRKKMLRTCWVHITLDRNTANSWLIISKDRRQVRMGDTHQNVSDNKERFSNYPMVLGAQRFSSGKMYWEVDVTQKEAWDLGVCRDSVQRKGQFSLSPENGFWTIWLWQDSYEAGTSPQTTLHIQVPPCQIGIFVDYEAGVVSFYNITDHGSLIYTFSECVFAGPLRPFFNVGFNYSGGNAAPLKLCPLKM
As to B8, the binding entry is recorded as “binds”.

B9: ornithine transcarbamylase (OTC) (protein, UniProt P11725 33-354)
chain: SQVQLKGRDLLTLKNFTGEEIQYMLWLSADLKFRIKQKGEYLPLLQGKSLGMIFEKRSTRTRLSTETGFALLGGHPSFLTTQDIHLGVNESLTDTARVLSSMTDAVLARVYKQSDLDTLAKEASIPIVNGLSDLYHPIQILADYLTLQEHYGSLKGLTLSWIGDGNNILHSIMMSAAKFGMHLQAATPKGYEPDPNIVKLAEQYAKENGTKLSMTNDPLEAARGGNVLITDTWISMGQEDEKKKRLQAFQGYQVTMKTAKVAASDWTFLHCLPRKPEEVDDEVFYSPRSLVFPEAENRKWTIMAVMVSLLTDYSPVLQKPKF
On to B9, for which the binding entry was “binds”.

B10: FMO5 (protein, UniProt P97872 1-533)
chain: MAKKRIAVIGAGASGLTCIKCCLEEGLEPVCFERSGDIGGLWRFQEAPEEGRASIYQSVVINTSKEMMCFSDYPIPDHYPNYMHNSQVLEYFRMYAKEFDLLKYIQFKTTVCSVKKQPDFSTSGQWQVVTECEGKQQVDVFDGVLVCTGHHTDAHLPLESFPGIEKFKGKYFHSRDYKNPVEFTGKRVIVIGIGNSGGDLAVEISHTAKQVFLSTRRGAWILNRVGKHGYPIDLLLSSRIMYYLSRICGPSLKNNYMEKQMNQRFDHEMFGLKPKHRALSQHPTVNDDLPNRIIAGLVKVKGNVKEFTETAAVFEDGSREDGIDVVIFATGYSFAFPFLEDSVKVVKNKVSLYKKVFPPNLEKPTLAIIGLIQPLGAIMPISELQGRWATQVFKGLKKLPSQSEMMAEINKAREEMAKRYVDSQRHTIQGDYIDTMEEIADLVGVRPNILPLVFTDPRLALRLLLGPCTPVQYRLQGPGKWAGARKTILTTEDRVRKPLMTRVVERDSSGGSLVTVRVLMLAVAFFAVILAYF
Take B10: the binding result was “binds”.

B11: PCCA (protein, UniProt Q91ZA3 49-724)
chain: SVEYEPKEKTFDKILIANRGEIACRVIKTCKKMGIKTVAIHSDVDASSVHVKMADEAVCVGPAPTSKSYLNMDAIMEAIKKTRAQAVHPGYGFLSENKEFAKRLAAEDVTFIGPDTHAIQAMGDKIESKLLAKRAKVNTIPGFDGVVKDADEAVRIAREIGYPVMIKASAGGGGKGMRIAWDDEETRDGFRFSSQEAASSFGDDRLLIEKFIDNPRHIEIQVLGDKHGNALWLNERECSIQRRNQKVVEEAPSIFLDPETRQAMGEQAVALAKAVKYSSAGTVEFLVDSQKNFYFLEMNTRLQVEHPVTECITGLDLVQEMILVAKGYPLRHKQEDIPISGWAVECRVYAEDPYKSFGLPSIGRLSQYQEPIHLPGVRVDSGIQPGSDISIYYDPMISKLVTYGSDRAEALKRMEDALDNYVIRGVTHNIPLLREVIINTRFVKGDISTKFLSDVYPDGFKGHTLTLSERNQLLAIASSVFVASQLRAQRFQEHSRVPVIRPDVAKWELSVKLHDEDHTVVASNNGPAFTVEVDGSKLNVTSTWNLASPLLSVNVDGTQRTVQCLSREAGGNMSIQFLGTVYKVHILTKLAAELNKFMLEKVPKDTSSTLCSPMPGVVVAVSVKPGDMVAEGQEICVIEAMKMQNSMTAGKMGKVKLVHCKAGDTVGEGDLLVELE
As to B11, the binding result was “binds”.
